The text below walks through data of PubChem BioAssay AID445 (National Center for Advancing Translational Sciences (NCATS), 2006).

Some of the results follow. Shown are side measurements of this screen, not its main read-out; they come without a call. The list favours compounds with an active or inconclusive main result. Words in brackets tell the shape of the fitted curve; partial curves, single points and poor fits give uncertain potencies.

A short description of this assay: IkB Signaling. The conditions noted are these: ABC-DLBCL IkBa-CBG/CBR dual luciferase ratio (green luciferase fused to IkBa over red control in OCI-Ly3 lymphoma cells), 4 h. The gist of the method: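 In this assay, an IκBα–CBG68 fusion accumulates when IKK-driven degradation is blocked; native CBR normalizes for cell number. OCI-Ly3 cells were treated 4 h with compound and doxycycline, then green and red light read after Chroma-Glo addition.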

Setting [1] is: measured here: control luc red channel unless noted.
Setting [2] is: measured here: IkB-luc green channel.
The mark [3] stands for this setting: measured here: control luc red channel.

Usually AC50 stands for the concentration at which the activity in the assay is half-maximal.

Turning to `COc1ccc(C(CNC(=O)c2oc3ccc(Cl)cc3c2C)N2CCCCC2)cc1` (configuration not stated), under setting [1], the AC50 was 39.8 µM [falling, single point].
The same measure, in the same setting: with `COc1ccc(NC(=O)Cn2c(SCc3cc(C)ccc3C)nc3ccncc32)c(OC)c1OC` the figure was 12.6 µM [falling, partial curve].
For `COc1ccccc1N1CCN(CCCCN2C(=O)c3ccccc3C2=O)CC1`, the AC50 under setting [1] was 6.31 µM [falling, full curve, poor fit].
On the same count and under the same terms, with `COc1ccc2c(CNCc3cccs3)c(C(=O)O)n(Cc3ccccc3)c2c1` the figure was 12.6 µM [falling, partial curve].
Take `Cc1c(CCNC(=O)c2ccc(Br)o2)sc2nc(-c3ccc(F)cc3)nn12`: the AC50 by setting is: under setting [2], 39.8 µM [falling, partial curve, poor fit]; under setting [3], 39.8 µM [falling, single point].
Regarding `O=C(Cn1c(=O)c2cccn2c2ccccc21)NCCc1ccccc1`, the AC50 under setting [1] was 10 µM [falling, partial curve].
Still for that read-out and setting: with `CCc1cccc(NC(=O)CSC2=Nc3ccccc3N=C(c3ccc(F)cc3)C2)c1` the figure was 12.6 µM [falling, partial curve, poor fit].
The same measure, in the same setting: with `O=C(CSc1nnc(CNC(=O)c2cccc(F)c2)n1-c1ccccc1)Nc1ccccc1F` the figure was 3.98 µM [falling, partial curve]; with `COc1ccc(Nc2nc(-c3ccc(C)cc3)nc3ccccc23)c(OC)c1`, 12.6 µM [falling, partial curve]; with `CCCCCn1c(C(C)NC(=O)c2ccccc2)nc2ccccc21` (configuration not stated), 1.58 µM [falling, full curve, poor fit].
On the same count and under the same terms, to `CCOC(=O)COc1cccc2c(=O)n(CC(=O)NCc3ccc4c(c3)OCO4)ccc12` belongs 0.631 µM [rising, full curve, poor fit]; to `Cc1ccc2[nH]c(=O)c(CN(Cc3ccc4c(c3)OCO4)Cc3nnnn3Cc3ccco3)cc2c1`, 6.31 µM [falling, partial curve].
Regarding `CCOc1cc(CNC(=O)C2COc3ccccc3C2)cc(OCC)c1OCC` (configuration not stated), under setting [1], the AC50 was 12.6 µM [falling, partial curve].
Still for that read-out and setting: with `CCOc1ccc(-c2ccc(NS(=O)(=O)c3ccc(C)cc3)cc2)nn1` the figure was 0.00631 µM [falling, full curve, poor fit].
Still for that read-out and setting: to `Cc1cccn2c(=O)c(/C=C(\C#N)c3nc4ccccc4[nH]3)c(Oc3ccc(C(C)(C)C)cc3)nc12` belongs 25.1 µM [falling, single point]; to `Nc1nonc1C(=O)NCCNCc1cc(Br)ccc1OCc1ccc(F)cc1`, 12.6 µM [falling, partial curve].
For the molecule `O=C(CCc1nc(-c2cccs2)no1)Nc1cccc([N+](=O)[O-])c1`, under setting [1], the AC50 is 39.8 µM [falling, single point].
The same measure, in the same setting: to `Cc1ccc(C)c(N2CCN(C(c3ccccc3)c3nnc(-c4ccccc4F)o3)CC2)c1` (configuration not stated) belongs 10 µM [falling, partial curve]; to `O[C@@H](C1=C/C(=C\c2ccncc2)c2ccccc21)c1ccncc1`, 5.01 µM [rising, single point] [measured here: IkB-luc green channel]; to `Cc1ccc(-c2nc3n(n2)C(=O)CC(c2ccc(Cl)cc2)S3)cc1` (configuration not stated), 39.8 µM [falling, single point].
Same read-out and setting: with `Cc1c(C(=O)NCCc2ccccc2)oc2ccc(S(=O)(=O)N3CCC4(CC3)OCCO4)cc12` the figure was 10 µM [falling, partial curve]; with `O=C(NCc1ccc(F)cc1)c1cc2n(n1)CCCN(Cc1ccc(F)cc1)C2=O`, 39.8 µM [falling, single point]; with `Cc1ccc(C(=O)Nc2sc3c(c2C(=O)NCc2ccco2)CCC(C(C)(C)C)C3)cc1` (configuration not stated), 7.94 µM [falling, single point].
Still for that read-out and setting: to `Cc1ccc(C)c(N2CCN(CCCNC(=O)c3cnn(-c4ccccc4Cl)c3C3CCN(C(=O)OC(C)(C)C)CC3)CC2)c1` belongs 12.6 µM [falling, partial curve]; to `CCOc1ccc(Sc2cc(C(=O)NC(C)c3ccccc3)c3ccccc3n2)cc1` (configuration not stated), 1.26 µM [falling, full curve, poor fit].
In the case of `Cc1ccc(OCC(=O)Nc2cc3nn(-c4ccccc4)nc3cc2C)cc1`, the AC50 under setting [1] is 15.8 µM [falling, partial curve].
The same measure, in the same setting: to `Cc1ccsc1CN(C(=O)COc1ccc(Br)cc1)C1CCS(=O)(=O)C1` (configuration not stated) belongs 25.1 µM [falling, partial curve]; to `Cc1ccc(C(=O)Nc2ccc(NC(=O)c3cccs3)cc2)cc1C`, 15.8 µM [falling, partial curve]; to `Cc1cc(Cl)ccc1NC(=O)C(=O)NCc1ccco1`, 39.8 µM [falling, single point].
Still for that read-out and setting: with `Cc1ccc(N2C(=O)CSC23C(=O)N(CC(=O)NCc2ccccc2)c2ccccc23)cc1C` (configuration not stated) the figure was 20 µM [falling, single point]; with `COCCCNC(=O)c1ccc(NC(=O)c2nsc3ccccc23)cc1`, 3.98 µM [falling, partial curve].
Same read-out and setting: with `COc1ccccc1CNC(=O)C1CCC(CNS(=O)(=O)c2ccc3c(c2)CCCC(=O)N3)CC1` (configuration not stated) the figure was 25.1 µM [falling, partial curve].
As to `COC(=O)c1cc2sc(Cl)cc2n1CC(=O)Nc1ccc(OC)c(OC)c1OC`, the half-maximal activity concentration (AC50) under setting [1] was 7.94 µM [falling, full curve].
Still for that read-out and setting: with `COc1ccc(CNC(=O)c2ccc(N3CCCC3)c(NC(=O)NCc3ccc(F)cc3)c2)cc1` the figure was 12.6 µM [falling, partial curve]; with `CS(=O)(=O)c1ccc(-c2nnc(NC(=O)c3ccc4c(c3)OCCO4)o2)cc1`, 2 µM [falling, partial curve, poor fit].
The same measure, in the same setting: to `CCC1CN(C(=O)N2CCC(C(=O)NCCN(CC)CC)CC2)c2cc(C)ccc2O1` (configuration not stated) belongs 12.6 µM [falling, partial curve]; to `COc1ccc(CNC(=O)CCn2cccn2)cc1`, 2 µM [falling, partial curve]; to `COc1ccc(CCn2cc3c(c2-c2ccc(Br)cc2)c(=O)n(C)c(=O)n3C)cc1OC`, 3.16 µM [rising, partial curve].
Same read-out and setting: with `COc1ccc(-c2nc(C)c(CCNC(=O)C(=O)Nc3ccccc3OC)s2)cc1` the figure was 20 µM [falling, single point].
As to `CCc1ccc(C(=O)c2cn(CC(=O)Nc3ccc4c(c3)OCO4)c3cc(OC)c(OC)cc3c2=O)cc1`, the AC50 under setting [1] was 39.8 µM [falling, single point].
`Cc1ccc(-c2nnc(SCc3ccccc3C)o2)cc1`: the AC50 under setting [1] is 2 µM [rising, partial curve].
On the same count and under the same terms, with `CCc1ccccc1NC(=O)c1c(NC(=O)c2ccccc2)sc2c1CCCC2` the figure was 10 µM [falling, partial curve]; with `Cc1ccc(C)c(N2CCN(C(=O)C3CCCN(S(=O)(=O)c4ccc5c(c4)oc(=O)n5C)C3)CC2)c1` (configuration not stated), 25.1 µM [falling, partial curve].
Still for that read-out and setting: to `COc1ccc2c(c1)Cc1sc(NC(=O)c3cccs3)nc1-2` belongs 6.31 µM [falling, partial curve].
Same read-out and setting: to `Cc1cccc(-c2nc(CSCC(=O)N3CCN(Cc4ccc5c(c4)OCO5)CC3)c(C)o2)c1` belongs 15.8 µM [falling, partial curve]; to `COc1cc(-c2cc(OC)c3c(C)oc(C)c3c(=O)c2)ccc1OC(=O)c1ccccc1Cl`, 3.16 µM [falling, partial curve, poor fit].
`Cc1cc(C)c2c(=O)cc(CSCC(=O)Nc3ccccc3Cl)[nH]c2c1`: the AC50 under setting [1] is 25.1 µM [falling, partial curve].
For `O=C(CCCN1C(=O)CSc2ncccc21)N1CCN(c2cccc(C(F)(F)F)c2)CC1`, the AC50 under setting [1] is 31.6 µM [falling, partial curve].
Take `Cc1cccc(Oc2nc3c(C)cccn3c(=O)c2/C=C(\C#N)c2nc3ccccc3[nH]2)c1`: under setting [1], the AC50 was 1.26 µM [rising, partial curve].
Same read-out and setting: with `Cc1cc(S(=O)(=O)C(CNC(=O)COc2ccc(Cl)cc2)c2cccs2)ccc1F` (configuration not stated) the figure was 25.1 µM [falling, single point].
Still for that read-out and setting: with `Cc1ccc(CCNC(=O)C2CCN(Cc3nc(-c4ccccc4C)oc3C)CC2)cc1` the figure was 12.6 µM [falling, partial curve].
Regarding `c1ccc(Cc2nnc(-c3ccccc3)o2)cc1`, the half-maximal activity concentration (AC50) under setting [2] was 25.1 µM [rising, partial curve] and the AC50 under setting [3] is 20 µM [falling, single point].
`Clc1cccc(C=NC=Nc2cccc(Cl)c2)c1`: the AC50 under setting [1] was 0.794 µM [rising, partial curve, poor fit].
Same read-out and setting: with `Cc1ccc(N(Cc2cc(=O)[nH]c3ccccc23)C(=O)c2ccco2)cc1` the figure was 1.58 µM [falling, full curve]; with `COc1cccc(NC(=O)C(Cc2ccccc2)NS(=O)(=O)c2ccc3c(c2)oc(=O)n3C)c1` (configuration not stated), 3.16 µM [falling, partial curve].
Turning to `Cc1coc2cc3oc(=O)c(CC(=O)NCCc4ccccc4)c(C)c3cc12`, the AC50 under setting [1] was 39.8 µM [falling, single point].
On the same count and under the same terms, with `CCOc1ccc(NC(=O)Cn2cc(C(=O)c3ccco3)c3ccccc32)cc1` the figure was 39.8 µM [falling, partial curve, poor fit].
The same measure, in the same setting: with `CCn1c(=O)cc(OCC(=O)Nc2cc(Cl)c(OC)cc2OC)c2ccccc21` the figure was 0.126 µM [falling, full curve]; with `CCOc1ccc(CCNC(=O)c2cc3c(-c4ccc(OC)c(OC)c4)nn(C)c3s2)cc1OCC`, 10 µM [falling, partial curve]; with `COc1ccc(-c2[nH]nc3c2C(c2ccncc2)C(C#N)=C(N)O3)cc1` (configuration not stated), 15.8 µM [falling, partial curve].
